Data as given in PubChem BioAssay AID1259405 (NCATS, 2018)
Shown is a random part of about 50,000 deposited reagents. Of all reagents, about 4,000 (8%) are marked active. 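Mouse siRNA library applied to hamster cells; one well for each siRNA.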 The numbers tell different reagents against one gene apart.

Screen: 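Knock-downs that lift recombinant protein yield in hamster ovary cells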 (primary screen)
Cells: Chinese hamster CHO-K1 ovary cells with stable secreted eGFP expression
Reagent: single siRNA against mouse genes, 0.8 pmol siRNA per well (2 µl of 400 nM stock)
Timing: 3 days
Measured: 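Per-well intracellular GFP measured by laser scanning cytometry, plus viability from ATP luminescence, each relative to plate median of non-targeting control wells, in %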
Scale: GFP, % of control: higher = more GFP per well, higher productivity; viability (ATP), % of control: higher = more viable cells (more ATP)
Rule for the call: 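a knock-down is called active if GFP reaches 120% or more of non-targeting control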

gene	reagent	GFP, % of control	viability (ATP), % of control	Outcome
Litaf (LPS-induced TN factor)	1	73.1	66	inactive
Litaf (LPS-induced TN factor)	2	73.6	97.3	inactive
Litaf (LPS-induced TN factor)	3	101	42.9	inactive
Kbtbd4 (kelch repeat and BTB (POZ) domain containing 4)	1	43	54.2	inactive
Kbtbd4 (kelch repeat and BTB (POZ) domain containing 4)	2	29	78.5	inactive
Kbtbd4 (kelch repeat and BTB (POZ) domain containing 4)	3	71.4	92.8	inactive
Gclm (glutamate-cysteine ligase, modifier subunit)	1	73.8	83.4	inactive
Gclm (glutamate-cysteine ligase, modifier subunit)	2	122	131	active
Psma7 (proteasome subunit alpha 7)	1	21.7	7.55	inactive
Psma7 (proteasome subunit alpha 7)	2	68.7	54.9	inactive
Psma7 (proteasome subunit alpha 7)	3	29.8	6.99	inactive
Recql (RecQ protein-like)	1	52.1	72.4	inactive
Recql (RecQ protein-like)	2	66.9	96.9	inactive
Recql (RecQ protein-like)	3	30.2	31.9	inactive
Csgalnact1 (chondroitin sulfate N-acetylgalactosaminyltransferase 1)	1	30.9	44.7	inactive
Csgalnact1 (chondroitin sulfate N-acetylgalactosaminyltransferase 1)	2	81.4	83.4	inactive
Csgalnact1 (chondroitin sulfate N-acetylgalactosaminyltransferase 1)	3	72.7	78.2	inactive
Coch (cochlin)	1	103	64.2	inactive
Coch (cochlin)	2	105	79.7	inactive
Clmp (CXADR-like membrane protein)	1	74.3	83.9	inactive
Clmp (CXADR-like membrane protein)	2	51	68.3	inactive
Clmp (CXADR-like membrane protein)	3	52.2	84	inactive

Called active, among the entries above:
gene	reagent	GFP, % of control	viability (ATP), % of control	Outcome
Gclm (glutamate-cysteine ligase, modifier subunit)	2	122	131	active

More results:
gene	reagent	GFP, % of control	viability (ATP), % of control	Outcome
Map2k4 (mitogen-activated protein kinase kinase 4)	1	68.2	69.6	inactive
Lacc1 (laccase domain containing 1)	1	73.3	56.9	inactive
Lacc1 (laccase domain containing 1)	2	65.1	77.4	inactive
Lacc1 (laccase domain containing 1)	3	108	93.9	inactive
Zbtb39 (zinc finger and BTB domain containing 39)	1	61.9	106	inactive
Zbtb39 (zinc finger and BTB domain containing 39)	2	35.5	48.4	inactive
Zbtb39 (zinc finger and BTB domain containing 39)	3	74.2	87.7	inactive
Setdb1 (SET domain, bifurcated 1)	1	134	120	active
Setdb1 (SET domain, bifurcated 1)	2	85.6	91.3	inactive
Lmo2 (LIM domain only 2)	1	90.6	105	inactive
Lmo2 (LIM domain only 2)	2	83.4	73	inactive
Lmo2 (LIM domain only 2)	3	69.3	79.2	inactive
Gfap (glial fibrillary acidic protein)	1	118	53.4	inactive
Gfap (glial fibrillary acidic protein)	2	112	121	inactive
Ddx6 (DEAD-box helicase 6)	1	91.8	67.2	inactive
Ddx6 (DEAD-box helicase 6)	2	102	117	inactive
Ddx6 (DEAD-box helicase 6)	3	79.7	96.7	inactive
F830104G03Rik (RIKEN cDNA F830104G03 gene)	1	86.1	111	inactive
F830104G03Rik (RIKEN cDNA F830104G03 gene)	2	92.3	76.4	inactive
F830104G03Rik (RIKEN cDNA F830104G03 gene)	3	70.1	55	inactive
Adgrb2 (adhesion G protein-coupled receptor B2)	1	83.2	76.3	inactive
Adgrb2 (adhesion G protein-coupled receptor B2)	2	103	81.1	inactive
Adgrb2 (adhesion G protein-coupled receptor B2)	3	81.2	59.5	inactive
Mrfap1 (Morf4 family associated protein 1)	1	124	89.2	active
Mrfap1 (Morf4 family associated protein 1)	2	57.9	76.1	inactive
Mrfap1 (Morf4 family associated protein 1)	3	115	101	inactive
Gipc1 (GIPC PDZ domain containing family, member 1)	1	107	131	inactive
Gipc1 (GIPC PDZ domain containing family, member 1)	2	155	162	active
Gipc1 (GIPC PDZ domain containing family, member 1)	3	106	111	inactive
Snx22 (sorting nexin 22)	1	68.6	82.4	inactive
Snx22 (sorting nexin 22)	2	42	29.3	inactive
Snx22 (sorting nexin 22)	3	63.9	51.9	inactive
Ypel1 (yippee like 1)	1	57.1	71.8	inactive
Ypel1 (yippee like 1)	2	52.7	51.5	inactive
Ypel1 (yippee like 1)	3	98.5	89	inactive
